The record followed here is PMC11868365.

Protein sequences, listed by entry. Tags and fused reporters are not part of them.
UniProt O60674: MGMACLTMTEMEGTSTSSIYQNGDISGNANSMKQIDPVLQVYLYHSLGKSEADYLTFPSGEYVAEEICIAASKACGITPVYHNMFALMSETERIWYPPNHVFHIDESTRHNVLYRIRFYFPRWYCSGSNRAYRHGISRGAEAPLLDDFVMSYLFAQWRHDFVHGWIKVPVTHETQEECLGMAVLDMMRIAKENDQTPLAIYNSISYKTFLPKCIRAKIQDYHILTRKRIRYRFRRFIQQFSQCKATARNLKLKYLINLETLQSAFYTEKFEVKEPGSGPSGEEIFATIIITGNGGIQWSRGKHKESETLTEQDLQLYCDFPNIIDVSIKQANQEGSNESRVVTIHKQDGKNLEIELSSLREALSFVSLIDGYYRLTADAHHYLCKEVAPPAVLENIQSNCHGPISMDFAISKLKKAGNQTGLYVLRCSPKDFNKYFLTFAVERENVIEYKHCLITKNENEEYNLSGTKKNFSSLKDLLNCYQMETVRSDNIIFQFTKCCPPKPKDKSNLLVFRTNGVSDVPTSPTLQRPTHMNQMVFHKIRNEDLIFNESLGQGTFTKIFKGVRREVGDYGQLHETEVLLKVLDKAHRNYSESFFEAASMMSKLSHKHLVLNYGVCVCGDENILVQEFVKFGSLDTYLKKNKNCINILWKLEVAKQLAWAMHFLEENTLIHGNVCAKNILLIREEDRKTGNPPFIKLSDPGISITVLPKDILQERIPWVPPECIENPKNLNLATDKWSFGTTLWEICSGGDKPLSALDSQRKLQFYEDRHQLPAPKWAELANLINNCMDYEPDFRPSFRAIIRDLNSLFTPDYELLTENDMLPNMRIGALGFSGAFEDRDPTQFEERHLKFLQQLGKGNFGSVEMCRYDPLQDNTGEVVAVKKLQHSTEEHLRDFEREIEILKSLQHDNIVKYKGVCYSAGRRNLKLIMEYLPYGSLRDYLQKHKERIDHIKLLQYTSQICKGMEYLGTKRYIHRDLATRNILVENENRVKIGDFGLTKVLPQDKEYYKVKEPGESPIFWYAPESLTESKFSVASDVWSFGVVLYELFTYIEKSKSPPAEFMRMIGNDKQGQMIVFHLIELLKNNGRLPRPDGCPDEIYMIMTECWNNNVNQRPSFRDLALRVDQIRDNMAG
UniProt P46937: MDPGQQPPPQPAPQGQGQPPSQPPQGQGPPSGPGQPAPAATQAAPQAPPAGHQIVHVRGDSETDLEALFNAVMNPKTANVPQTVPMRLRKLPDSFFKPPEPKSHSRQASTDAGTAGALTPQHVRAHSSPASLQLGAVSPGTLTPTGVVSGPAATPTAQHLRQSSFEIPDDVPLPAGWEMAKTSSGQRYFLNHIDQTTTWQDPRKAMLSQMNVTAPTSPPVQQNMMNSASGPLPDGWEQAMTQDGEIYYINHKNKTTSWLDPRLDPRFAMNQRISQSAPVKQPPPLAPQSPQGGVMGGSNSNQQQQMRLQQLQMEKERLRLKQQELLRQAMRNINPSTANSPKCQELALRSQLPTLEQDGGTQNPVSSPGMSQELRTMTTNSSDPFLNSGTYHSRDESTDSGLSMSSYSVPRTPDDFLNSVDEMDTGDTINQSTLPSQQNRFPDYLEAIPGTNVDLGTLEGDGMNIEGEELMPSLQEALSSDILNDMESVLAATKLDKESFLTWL

Results are given in words; binding and its absence hold for the method and conditions named. Binding seen in cells or lysates may run through a third protein.

Assay [1] addresses T1, PTPRO (human (endogenous in ZR75-1)) (UniProt Q16827).
T1 sequence: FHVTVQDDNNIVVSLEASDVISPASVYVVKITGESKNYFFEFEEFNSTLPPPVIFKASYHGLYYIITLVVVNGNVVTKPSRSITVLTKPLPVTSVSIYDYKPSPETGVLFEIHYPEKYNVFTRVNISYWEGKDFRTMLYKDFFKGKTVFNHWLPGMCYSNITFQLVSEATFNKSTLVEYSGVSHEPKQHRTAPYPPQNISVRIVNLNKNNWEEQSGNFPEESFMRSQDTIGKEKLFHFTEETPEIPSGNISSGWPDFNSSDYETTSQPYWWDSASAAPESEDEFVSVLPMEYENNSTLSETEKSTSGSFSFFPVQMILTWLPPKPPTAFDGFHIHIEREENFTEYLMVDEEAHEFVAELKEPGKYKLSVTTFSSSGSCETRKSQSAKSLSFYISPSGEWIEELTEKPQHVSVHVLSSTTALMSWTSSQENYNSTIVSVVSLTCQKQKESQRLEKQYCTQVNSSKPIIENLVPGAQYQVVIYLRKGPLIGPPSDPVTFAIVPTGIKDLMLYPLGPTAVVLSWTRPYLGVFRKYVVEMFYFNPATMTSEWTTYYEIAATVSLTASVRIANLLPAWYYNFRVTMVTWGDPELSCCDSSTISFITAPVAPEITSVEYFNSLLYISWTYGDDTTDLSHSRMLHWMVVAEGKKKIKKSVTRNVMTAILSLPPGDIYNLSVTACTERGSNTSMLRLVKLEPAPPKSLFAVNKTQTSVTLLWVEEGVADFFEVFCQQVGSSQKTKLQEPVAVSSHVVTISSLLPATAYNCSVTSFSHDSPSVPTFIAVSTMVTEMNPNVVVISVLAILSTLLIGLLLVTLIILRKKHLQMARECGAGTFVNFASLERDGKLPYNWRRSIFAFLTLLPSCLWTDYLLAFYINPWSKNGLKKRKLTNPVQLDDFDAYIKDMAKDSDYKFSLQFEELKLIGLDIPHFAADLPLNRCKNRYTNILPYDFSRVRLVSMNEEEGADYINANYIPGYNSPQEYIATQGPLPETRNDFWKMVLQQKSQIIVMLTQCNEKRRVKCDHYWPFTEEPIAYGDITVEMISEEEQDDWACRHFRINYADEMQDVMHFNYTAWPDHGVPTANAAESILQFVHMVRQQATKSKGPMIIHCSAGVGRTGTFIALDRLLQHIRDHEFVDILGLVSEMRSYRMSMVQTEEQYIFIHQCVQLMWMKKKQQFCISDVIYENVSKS
As to the kind of experiment: co-IP; endogenous proteins in ZR75-1 cells; IP with anti-PTPRO, anti-JAK2 or anti-YAP antibodies.

The target of assay [2] is JAK2 (human (endogenous in ZR75-1)) (UniProt O60674). Described as above.

With “YES-associated protein (YAP) (from UniProt P46937 1-504)”, the binding result in assay [1] and in assay [2] was “no binding” in each case.
